Some of the results follow. Values are raw readings; no control value is given beside them.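 Primary screen: polymyxin B was added at a level permeabilizing Salmonella outer membranes while sparing inner membranes. DMSO wells, both with and without polymyxin B, established maximum growth. Plate-to-plate variation meant each plate was ranked on its own, and the lowest-OD600 compounds were selected as hits.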
System: Salmonella enterica serovar Typhimurium SL1344
Experiment: bacterial growth OD600 after 18 h with compound and polymyxin B; higher = more bacterial growth (less inhibition)
Details: 50 µM, Mueller-Hinton broth

| SMILES | bacterial growth OD600 (polymyxin B 0.75 µg/mL) | bacterial growth OD600 (polymyxin B 1 µg/mL) |
| --- | --- | --- |
| O=C(NC1Cc2ccccc2C1)c1coc(COc2cccc(F)c2)n1 | 0.009 | – |
| COc1cc(CN([C@H]2CCCCNC2=O)S(=O)(=O)c2cccc3cccnc23)cc(OC)c1OCCc1ccsc1 | 0.598 | – |
| Cc1cccc(C(=O)N2CCC3(CCCN(CC(C)(C)C)C3=O)C2)n1 (centres undefined) | – | 0.139 |
| CSc1ccccc1NC(=O)N1CCCC(CNC(=O)c2cc(C)on2)C1 (centres undefined) | 0.958 | – |
| COCC1CCCN(C(=O)c2coc(COc3ccccc3)n2)C1 (centres undefined) | – | 0.983 |
| CCOC(=O)C1(Cc2ccc(OC)cc2)CCN(C(=O)c2cc(C)cc(C)c2)CC1 | 0.005 | – |
| CCC(COC)NC(=O)c1cc(OC)ccc1OC1CCN(C(=O)C2CC2)CC1 (centres undefined) | – | 0.851 |
| Cc1nc(-c2ccncc2)ncc1C(C)NC(=O)c1ccc(Cl)s1 (centres undefined) | – | 1 |
| CC(NC(=O)c1ccc(OC2CCN(C(=O)C3CC3)CC2)cc1)c1cccs1 (centres undefined) | – | 1.03 |

Part of the list above, reformatted:
O=C(NC1Cc2ccccc2C1)c1coc(COc2cccc(F)c2)n1
  bacterial growth OD600 (polymyxin B 0.75 µg/mL): 0.009
COc1cc(CN([C@H]2CCCCNC2=O)S(=O)(=O)c2cccc3cccnc23)cc(OC)c1OCCc1ccsc1
  bacterial growth OD600 (polymyxin B 0.75 µg/mL): 0.598
